{
  "source": "patent US20210154208A1",
  "about": "“Method to Identify Agents That Can Overcome Inhibition Caused By Drug-protein Binding of the Human Plasma Protein, Alpha-1-acid Glycoprotein” (The Johns Hopkins University, priority 2019, published 2021)",
  "key": {"FLT3": {"test_system": "FLT3", "assay": "Western blot of FLT3 autophosphorylation and downstream signaling", "format": "cell-based", "conditions": "MOLM-14, 1 hour, TKI 10 nM and 100 nM", "method": "Cells in logarithmic growth are resuspended in either plasma or RPMI 1640 media supplemented with either 10% FBS serum or physiologic concentrations of purified plasma proteins. The cells are cultured for 1 hour at 37° C. in the presence of drug(s) with intermittent shaking. The cells are then washed, lysed with RIPA buffer (Sigma) per manufacturer's protocol, and total cell lysates separated by sodium dodecyl sulfate polyacrylamide gel electrophoresis (Invitrogen) with Western transfer onto polyvinyl difluoride membranes (Millipore). The membranes are probed for FLT3 by using the S-18 antibody (Santa Cruz), or for other proteins using the indicated antibodies (Cell Signaling Technology), followed by horseradish peroxidase-conjugated goat anti-rabbit secondary antibodies with enhanced chemiluminescence detection (Bio-Rad)."}, "MOLM-14 cells": {"test_system": "MOLM-14 cells", "assay": "Modified plasma inhibition assay (PIA), MTT proliferation in 50% human plasma", "format": "cell-based", "conditions": "MOLM-14, 48 hours, 50% human plasma vs 10% FBS", "method": "In the original plasma inhibitory assay (PIA), FLT3/ITD-expressing cells are co-incubated with plasma samples from patients receiving a FLT3 TKI, and Western blotting analysis of FLT3 auto-phosphorylation is used to measure the extent of FLT3 inhibitory activity present in their plasma.(9) This can then be compared to total plasma drug levels to determine the relative efficacy of a drug in vivo compared to its activity in vitro. […] To model these effects in the pre-clinical setting, we modified the PIA assay. Whereas the PIA was designed to assess in vivo drug activity with regards to a specific target (e.g.: inhibition of FLT3 auto-phosphorylation by TKI), the modified PIA is similarly cell-based, but measures the clinically relevant biological end-points of cytotoxicity and proliferation inhibition, instead of target inhibition. In the modified assay, FLT3/ITD cell lines are cultured in the presence of human plasma or purified human plasma proteins and treated with a range of concentrations of the drug of interest. […]\nCells in logarithmic growth are resuspended in either human plasma or serum-free RPMI 1640 media supplemented with the plasma protein of interest and seeded in 96-well format at 50 μL per well. […] Optical absorbance at 570 nm is measured via plate reader (iMark, Bio-Rad), averaging across technical replicates."}},
  "note": "For some assays here: For at least one compound, name, drawing or mass did not settle the structure. Some entries share one result that the patent states for a list of compounds.",
  "data": [
    {"smiles": "C[C@]12O[C@H](C[C@]1(O)CO)n1c3ccccc3c3c4c(c5c6ccccc6n2c5c31)CNC4=O", "note": "[lestaurtinib]", "values": [
      {"measurement": "inhibition of FLT3 phosphorylation in the presence of human plasma", "setting": "FLT3", "value": "no appreciable FLT3 TKI inhibitory activity"},
      {"measurement": "fold inhibition (increase in IC50) in the presence of 50% human plasma", "setting": "MOLM-14 cells", "value": "greater than 100 fold"}
    ]}
  ]
}
